These are literature values, as cited in article PMC10135964, “One Scaffold, Two Conformations: The Ring-Flip of the Messenger InsP8 Occurs under Cytosolic Conditions” (Biomolecules, 2023).

Molecules are shown by their SMILES.

This data set has as its system mammalian cells. The following applies: cited from earlier work; for Cellular concentration: approximate concentrations in mammalian cells.

Turning to `O=P(O)(O)O[C@H]1[C@@H](OP(=O)(O)O)[C@H](OP(=O)(O)O)[C@@H](OP(=O)(O)OP(=O)(O)O)[C@H](OP(=O)(O)O)[C@H]1OP(=O)(O)O` [5PP-InsP5], the Cellular concentration is 1 to 5 µM. In the case of `O=P(O)(O)O[C@H]1[C@H](OP(=O)(O)O)[C@@H](OP(=O)(O)O)[C@H](OP(=O)(O)O)[C@@H](OP(=O)(O)O)[C@H]1OP(=O)(O)O` [InsP6], the Cellular concentration is 20 to 50 µM. Regarding `O=P(O)(O)O[C@@H]1[C@@H](OP(=O)(O)O)[C@H](OP(=O)(O)OP(=O)(O)O)[C@@H](OP(=O)(O)O)[C@H](OP(=O)(O)OP(=O)(O)O)[C@@H]1OP(=O)(O)O` [InsP8, 1,5(PP)2-InsP4], the Cellular concentration is < 1 µM and the endogenous concentration entry was “around 1 µM”.
